The exact form of at least one protein or probe is not confirmed. For some assays here: No signal at the amounts used counts as a negative. For some assays here: At least one verdict was read from the data and is not stated in words by the source. For some assays here: Weaker means in comparison with the reference protein, sequence or condition of that experiment.
Columns and labels:
BCDX2 complex (human) [1] = assay: EMSA; details: EMSA: 20 mM Tris-HCl pH 7.5, 2 mM MgCl2, 2 mM ATP, 37 C, 20 nM DNA, glutaraldehyde fixation, recombinant protein, protein details: Strep-tag and His-tag (XRCC2 N-terminal His)
BC complex (human) = assay: EMSA; details: EMSA: 20 mM Tris-HCl pH 7.5, 2 mM MgCl2, 2 mM ATP, 37 C, 20 nM DNA, glutaraldehyde fixation, recombinant protein, protein details: Strep-tag
DX2 complex (human) = assay: EMSA; details: EMSA: 20 mM Tris-HCl pH 7.5, 2 mM MgCl2, 2 mM ATP, 37 C, 20 nM DNA, glutaraldehyde fixation, recombinant protein, protein details: His-tag
miniBRCA2-DSS1 (human) = assay: EMSA; details: weaker than BCDX2; EMSA: 20 mM Tris-HCl pH 7.5, 2 mM MgCl2, 2 mM ATP, 37 C, 20 nM DNA, glutaraldehyde fixation; recombinant protein; label: 5' FITC; single-stranded DNA
RAD51 + BCDX2 complex = assay: BLI; details: BLI: 50 mM Tris-HCl pH 7.5, 2 mM ATP, 50 mM KCl, 5 mM MgCl2, 0.05% Tween 20, room temperature, recombinant protein, protein details: Strep-tag and His-tag (XRCC2 N-terminal His), label: 5' biotin, single-stranded DNA
RAD51 K133A = RAD51 K133A (UniProt Q06609); assay: stopped-flow fluorescence; details: reduced cooperativity, re-evaluated earlier data (ref 33); stopped-flow: 25 mM Tris-HCl pH 7.5, 5 mM MgCl2, 50 mM KCl, 2 mM ATP, 0.5 mM EDTA, 10% glycerol …; recombinant protein; label: Cy3 at 3' or 5'; single-stranded DNA
RAD51 K133R = RAD51 K133R (UniProt Q06609); assay: stopped-flow fluorescence; details: reduced cooperativity, re-evaluated earlier data (ref 33); stopped-flow: 25 mM Tris-HCl pH 7.5, 5 mM MgCl2, 50 mM KCl, 2 mM ATP, 0.5 mM EDTA, 10% glycerol …; recombinant protein; label: Cy3 at 3' or 5'; single-stranded DNA
BCDX2 complex (human) [2] = assay: BLI; details: ATP, Mg2+; BLI: 50 mM Tris-HCl pH 7.5, 2 mM ATP, 50 mM KCl, 5 mM MgCl2, 0.05% Tween 20, room temperature; recombinant protein; protein details: Strep-tag and His-tag (XRCC2 N-terminal His); label: 5' biotin; single-stranded DNA
[3] = BCDX2 facilitates RAD51 binding

Chains of the proteins cited; added tags and fusions are not shown. A line that says so, or that is headed by a name, gives the form on record, which may keep a tag or linker.
UniProt Q06609, whole entry K133A: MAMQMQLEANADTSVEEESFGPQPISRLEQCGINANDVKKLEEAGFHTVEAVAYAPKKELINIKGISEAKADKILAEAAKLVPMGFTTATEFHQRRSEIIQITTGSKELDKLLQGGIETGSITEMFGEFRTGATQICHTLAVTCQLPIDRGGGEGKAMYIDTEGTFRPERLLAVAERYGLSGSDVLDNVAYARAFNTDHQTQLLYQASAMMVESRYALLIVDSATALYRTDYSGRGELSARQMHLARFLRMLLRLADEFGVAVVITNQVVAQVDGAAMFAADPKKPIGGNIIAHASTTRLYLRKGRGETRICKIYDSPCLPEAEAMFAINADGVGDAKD
UniProt Q06609, whole entry K133R: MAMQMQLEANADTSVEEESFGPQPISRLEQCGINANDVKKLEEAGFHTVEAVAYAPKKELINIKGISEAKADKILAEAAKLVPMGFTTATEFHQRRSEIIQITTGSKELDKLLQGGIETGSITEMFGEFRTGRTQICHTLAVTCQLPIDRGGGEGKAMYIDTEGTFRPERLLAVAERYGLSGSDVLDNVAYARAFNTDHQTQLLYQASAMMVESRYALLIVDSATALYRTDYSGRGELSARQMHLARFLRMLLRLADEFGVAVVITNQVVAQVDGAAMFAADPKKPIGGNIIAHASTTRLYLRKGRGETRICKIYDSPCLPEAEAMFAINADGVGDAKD
BCDX2 complex (human), one chain, as listed by the source, chain 2 of 4: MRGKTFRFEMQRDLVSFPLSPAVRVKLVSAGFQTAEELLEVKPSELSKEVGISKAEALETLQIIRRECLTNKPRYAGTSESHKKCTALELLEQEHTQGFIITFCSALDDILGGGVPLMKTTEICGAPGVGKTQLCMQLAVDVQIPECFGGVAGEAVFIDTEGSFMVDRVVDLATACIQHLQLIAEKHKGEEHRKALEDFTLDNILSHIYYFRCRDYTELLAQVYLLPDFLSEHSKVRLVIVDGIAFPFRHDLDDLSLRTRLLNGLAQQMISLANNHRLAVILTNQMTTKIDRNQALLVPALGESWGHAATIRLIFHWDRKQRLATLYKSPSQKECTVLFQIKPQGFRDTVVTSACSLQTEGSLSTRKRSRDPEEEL
BCDX2 complex (human), one chain, as listed by the source, chain 1 of 4: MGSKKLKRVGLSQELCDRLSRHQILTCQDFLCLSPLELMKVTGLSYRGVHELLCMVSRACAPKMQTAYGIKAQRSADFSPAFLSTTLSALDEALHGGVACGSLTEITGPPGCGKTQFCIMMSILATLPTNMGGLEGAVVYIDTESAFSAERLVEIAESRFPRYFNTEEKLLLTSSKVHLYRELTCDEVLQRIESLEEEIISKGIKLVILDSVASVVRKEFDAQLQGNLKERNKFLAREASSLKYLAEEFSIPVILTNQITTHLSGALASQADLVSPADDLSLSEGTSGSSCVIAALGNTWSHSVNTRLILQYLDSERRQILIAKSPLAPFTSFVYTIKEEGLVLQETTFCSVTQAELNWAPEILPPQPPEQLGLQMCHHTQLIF
BCDX2 complex (human), one chain, as listed by the source, chain 4 of 4: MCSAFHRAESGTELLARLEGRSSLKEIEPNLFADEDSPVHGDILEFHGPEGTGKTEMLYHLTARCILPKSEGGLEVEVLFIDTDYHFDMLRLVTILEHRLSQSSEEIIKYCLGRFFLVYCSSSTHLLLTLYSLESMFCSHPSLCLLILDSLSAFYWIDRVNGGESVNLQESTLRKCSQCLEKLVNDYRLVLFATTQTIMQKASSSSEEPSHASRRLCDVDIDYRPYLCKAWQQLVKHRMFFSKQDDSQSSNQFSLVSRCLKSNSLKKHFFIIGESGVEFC
BCDX2 complex (human), one chain, as listed by the source, chain 3 of 4: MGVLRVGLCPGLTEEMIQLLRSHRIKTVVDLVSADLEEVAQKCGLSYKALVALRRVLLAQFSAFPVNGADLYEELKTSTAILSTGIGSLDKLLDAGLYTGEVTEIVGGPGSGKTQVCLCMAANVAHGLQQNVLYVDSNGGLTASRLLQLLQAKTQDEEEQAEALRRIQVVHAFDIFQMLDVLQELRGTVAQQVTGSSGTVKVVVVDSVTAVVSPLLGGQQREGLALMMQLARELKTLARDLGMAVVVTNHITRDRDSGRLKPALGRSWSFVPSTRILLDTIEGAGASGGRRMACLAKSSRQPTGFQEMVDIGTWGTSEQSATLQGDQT

AAATCAATCTAAAGTATATATGAGTAAACTTGGTCTGACAGTTACCAATGCTTAATCAGTGAGGCACCTATCTCAGCGATCTGTCTATTT / AAATAGACAGATCGCTGAGATAGGTGCCTCACTGATTAAGCATTG / TATATACTTTAGATTGATTT [gapped DNA]
binding result (BCDX2 complex (human) [1]; weaker than Y-form and flap, label: 5' FITC on strand 2): binds more weakly

AGCTACCATGCCTGCACGAATTAAGCAATTCGTAATCATGGTCATAGCT (double strand) [dsDNA 49mer]
binding result (BC complex (human); label: 3' FITC): no binding
binding result (BCDX2 complex (human) [1]; little or no affinity, label: 3' FITC): no binding
binding result (DX2 complex (human); label: 3' FITC): no binding

AGCTACCATGCCTGCACGAATTAAGCAATTCGTAATCATGGTCATAGCT / AATTCGTGCAGGCATGGTAGCT [3' overhang (3'-OH)]
binding result (BCDX2 complex (human) [1]; weaker than Y-form and flap, label: 5' FITC on strand 1): binds more weakly

AGCTATGACCATGATTACGAATTGCTT [ssDNA 27mer]
binding result (BCDX2 complex (human) [1]; weaker than flap, label: 5' FITC, single-stranded DNA): binds more weakly

CTAAGTTCGTCAGGATTCCAGCATTCTAACAGTCATAGCG [ssDNA 40mer]
binding result (miniBRCA2-DSS1 (human)): binds more weakly

GAATGTGTGTCTCAATC [ssDNA 20mer]
binding result (miniBRCA2-DSS1 (human)): binds more weakly

GACGCTGCCGAATTCTACCAGTGCCTTGCTA / ATCTGTTGTAATCGTCAAGCTTTATGCCGTT / GAACGGCATAAAGCTTGACGATTACAACAGATCATGGAGCTGTCTAGAGGATCCGACTATCGA / ATCGATAGTCGGATCCTCTAGACAGCTCCATGTAGCAAGGCACTGGTAGAATTCGGCAGCGT [0ntRVF (fork)]
binding result (BCDX2 complex (human) [1]; fork with no protruding ssDNA, label: Cy3 on strand 1): binds more weakly

GACGCTGCCGAATTCTACCAGTGCCTTGCTATTTTTTTTTTTTTTTTTTTTTTTTT / ATCTGTTGTAATCGTCAAGCTTTATGCCGTT / GAACGGCATAAAGCTTGACGATTACAACAGATCATGGAGCTGTCTAGAGGATCCGACTATCGA / ATCGATAGTCGGATCCTCTAGACAGCTCCATGTAGCAAGGCACTGGTAGAATTCGGCAGCGT [20ntRVF]
binding result (BCDX2 complex (human) [1]): binds

GTACAAAGCTCTGGCATGATACTATGCGGC [ssDNA 30mer]
binding result (miniBRCA2-DSS1 (human)): binds more weakly

TGCCGAATTCTACCAGTGCCAGTGATGGACATCTTTGCCCACGTTGACCC / TGGGTCAACGTGGGCAAAGATGTCCTAGCAATGTAATCGTCTATGACGTT / TCGGATCCTCTAGACAGCTCCATGATCACTGGCACTGGTAGAATTCGGC / CAACGTCATAGACGATTACATTGCTTCATGGAGCTGTCTAGAGGATCCGA [RVF2]
binding result (BC complex (human); label: 5' FITC on strand 4): no binding
binding result (BCDX2 complex (human) [1]; little or no affinity, label: 5' FITC on strand 4): no binding
binding result (DX2 complex (human); label: 5' FITC on strand 4): no binding

TTTTTTTTTTTTTTTTTTTT [biotin-dT20]
binding result (RAD51 + BCDX2 complex; [3]): binds

TTTTTTTTTTTTTTTTTTTTTTTTT [biotin-dT25]
binding result (RAD51 + BCDX2 complex; [3]): binds

TTTTTTTTTTTTTTTTTTTTTTTTTTTTTTTTTTTTTTTTTTT [Cy3-dT43]
binding result (RAD51 K133A): binds
binding result (RAD51 K133R): binds

TTTTTTTTTTTTTTTTTTTTTTTTTTTTTTTTTTTTTTTTTTT [biotin-dT43]
binding result (BCDX2 complex (human) [2]): binds
binding result (RAD51 + BCDX2 complex; BCDX2 preincubated with vanadate): binds more weakly

— publication PMC11514458
